The supplement of paper PMC12823440, “Inhibitors supercharge kinase turnover through native proteolytic circuits” (Nature, 2025)
Some of the results follow. The calls rarely recur for the same compound in another form.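 Kinases were expressed as nanoluciferase fusions in K562 cells and luminescence was read every 4 h between 2 and 18 h as percent of control, DMSO set to 100% and a positive control to 0%. A time point counts as decreased when the signal drops significantly (2 sigma). The hit call is the authors' own, does not follow from the count of time points alone, and its rule is not shown.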

Protein sequences, listed by entry. Tags and fused reporters are not part of them. Lines headed by an entry give the natural chain unless they say otherwise; changes in a name come on top.
UniProt P00519, whole entry: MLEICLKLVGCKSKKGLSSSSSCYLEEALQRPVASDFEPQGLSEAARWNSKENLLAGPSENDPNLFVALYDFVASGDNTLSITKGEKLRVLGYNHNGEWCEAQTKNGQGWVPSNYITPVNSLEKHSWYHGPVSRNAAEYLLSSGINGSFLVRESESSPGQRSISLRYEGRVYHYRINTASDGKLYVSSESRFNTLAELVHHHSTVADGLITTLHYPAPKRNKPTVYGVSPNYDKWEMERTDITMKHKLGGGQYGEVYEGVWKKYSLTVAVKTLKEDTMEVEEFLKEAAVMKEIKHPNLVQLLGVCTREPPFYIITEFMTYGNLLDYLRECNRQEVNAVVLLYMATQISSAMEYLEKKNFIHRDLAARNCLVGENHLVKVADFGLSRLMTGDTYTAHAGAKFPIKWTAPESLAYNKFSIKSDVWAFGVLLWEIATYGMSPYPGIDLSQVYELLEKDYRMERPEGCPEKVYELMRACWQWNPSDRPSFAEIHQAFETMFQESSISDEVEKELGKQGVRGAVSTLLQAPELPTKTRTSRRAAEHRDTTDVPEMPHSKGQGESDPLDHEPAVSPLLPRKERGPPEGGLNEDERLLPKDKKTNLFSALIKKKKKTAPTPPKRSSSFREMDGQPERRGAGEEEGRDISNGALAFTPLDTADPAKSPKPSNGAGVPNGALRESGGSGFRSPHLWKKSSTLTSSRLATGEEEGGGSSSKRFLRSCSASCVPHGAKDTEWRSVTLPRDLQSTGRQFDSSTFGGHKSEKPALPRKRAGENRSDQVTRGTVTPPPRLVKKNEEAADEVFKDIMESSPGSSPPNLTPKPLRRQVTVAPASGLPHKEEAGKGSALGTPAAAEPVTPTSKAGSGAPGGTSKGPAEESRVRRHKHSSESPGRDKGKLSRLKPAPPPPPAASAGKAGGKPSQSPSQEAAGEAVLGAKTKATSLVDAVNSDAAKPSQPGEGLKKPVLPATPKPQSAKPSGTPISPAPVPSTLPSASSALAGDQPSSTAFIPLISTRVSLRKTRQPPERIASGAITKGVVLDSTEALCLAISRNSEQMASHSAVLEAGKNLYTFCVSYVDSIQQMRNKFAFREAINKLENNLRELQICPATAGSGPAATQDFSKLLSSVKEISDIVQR
UniProt Q9UM73: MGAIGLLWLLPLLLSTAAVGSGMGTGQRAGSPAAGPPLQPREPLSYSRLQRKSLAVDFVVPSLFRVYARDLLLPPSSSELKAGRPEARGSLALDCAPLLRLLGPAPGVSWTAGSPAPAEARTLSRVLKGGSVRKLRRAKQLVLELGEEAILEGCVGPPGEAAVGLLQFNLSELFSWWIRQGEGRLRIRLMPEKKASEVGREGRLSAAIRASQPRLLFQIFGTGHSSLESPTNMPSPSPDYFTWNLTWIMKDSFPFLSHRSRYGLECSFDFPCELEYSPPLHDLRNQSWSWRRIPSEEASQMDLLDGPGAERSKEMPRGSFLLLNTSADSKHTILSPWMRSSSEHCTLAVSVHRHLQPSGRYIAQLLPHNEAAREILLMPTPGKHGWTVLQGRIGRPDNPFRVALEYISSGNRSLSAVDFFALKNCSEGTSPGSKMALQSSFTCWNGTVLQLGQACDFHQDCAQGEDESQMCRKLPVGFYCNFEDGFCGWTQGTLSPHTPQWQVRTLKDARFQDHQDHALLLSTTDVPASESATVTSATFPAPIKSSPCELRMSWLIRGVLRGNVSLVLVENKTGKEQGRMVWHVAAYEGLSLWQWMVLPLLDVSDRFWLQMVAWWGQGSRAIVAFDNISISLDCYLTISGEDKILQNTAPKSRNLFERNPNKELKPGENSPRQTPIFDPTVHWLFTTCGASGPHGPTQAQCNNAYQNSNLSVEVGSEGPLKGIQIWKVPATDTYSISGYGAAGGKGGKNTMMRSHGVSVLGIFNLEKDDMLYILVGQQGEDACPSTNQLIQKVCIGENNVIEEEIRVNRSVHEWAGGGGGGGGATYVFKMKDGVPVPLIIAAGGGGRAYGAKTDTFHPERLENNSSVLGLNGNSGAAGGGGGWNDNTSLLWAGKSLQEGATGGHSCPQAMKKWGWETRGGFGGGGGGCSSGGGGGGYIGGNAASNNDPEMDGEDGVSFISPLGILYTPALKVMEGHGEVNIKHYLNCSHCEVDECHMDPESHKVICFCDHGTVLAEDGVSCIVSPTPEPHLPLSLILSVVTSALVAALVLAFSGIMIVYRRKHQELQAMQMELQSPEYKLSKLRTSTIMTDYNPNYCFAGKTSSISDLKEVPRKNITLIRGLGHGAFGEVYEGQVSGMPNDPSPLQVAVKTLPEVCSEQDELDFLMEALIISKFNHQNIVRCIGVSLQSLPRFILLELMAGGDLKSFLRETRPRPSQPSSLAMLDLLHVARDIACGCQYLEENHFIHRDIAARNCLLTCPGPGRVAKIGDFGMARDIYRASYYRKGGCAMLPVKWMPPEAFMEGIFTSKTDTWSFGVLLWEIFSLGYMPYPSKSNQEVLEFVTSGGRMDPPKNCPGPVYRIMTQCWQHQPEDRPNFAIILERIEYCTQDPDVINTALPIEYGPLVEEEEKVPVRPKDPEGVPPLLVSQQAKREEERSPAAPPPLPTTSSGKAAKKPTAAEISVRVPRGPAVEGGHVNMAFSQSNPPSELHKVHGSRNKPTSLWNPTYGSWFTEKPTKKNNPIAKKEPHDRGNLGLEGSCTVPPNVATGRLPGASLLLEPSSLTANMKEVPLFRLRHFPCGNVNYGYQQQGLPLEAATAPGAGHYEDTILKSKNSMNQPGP
UniProt P10398: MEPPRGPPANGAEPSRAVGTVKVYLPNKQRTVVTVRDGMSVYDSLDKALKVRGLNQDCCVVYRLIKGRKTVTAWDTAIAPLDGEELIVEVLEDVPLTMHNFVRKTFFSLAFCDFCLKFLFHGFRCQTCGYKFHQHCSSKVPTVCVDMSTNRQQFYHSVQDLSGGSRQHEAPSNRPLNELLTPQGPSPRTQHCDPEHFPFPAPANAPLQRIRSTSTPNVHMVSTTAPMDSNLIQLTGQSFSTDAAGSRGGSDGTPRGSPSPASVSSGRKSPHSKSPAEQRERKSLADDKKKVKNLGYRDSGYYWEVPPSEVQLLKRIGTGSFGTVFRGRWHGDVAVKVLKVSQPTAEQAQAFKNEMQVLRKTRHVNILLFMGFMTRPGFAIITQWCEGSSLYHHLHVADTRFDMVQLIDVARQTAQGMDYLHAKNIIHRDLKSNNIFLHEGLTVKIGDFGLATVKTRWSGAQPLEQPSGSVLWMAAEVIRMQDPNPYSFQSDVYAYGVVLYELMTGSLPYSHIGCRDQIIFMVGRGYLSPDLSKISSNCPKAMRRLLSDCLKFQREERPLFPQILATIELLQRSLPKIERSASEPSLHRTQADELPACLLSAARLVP
UniProt Q96GD4, whole entry: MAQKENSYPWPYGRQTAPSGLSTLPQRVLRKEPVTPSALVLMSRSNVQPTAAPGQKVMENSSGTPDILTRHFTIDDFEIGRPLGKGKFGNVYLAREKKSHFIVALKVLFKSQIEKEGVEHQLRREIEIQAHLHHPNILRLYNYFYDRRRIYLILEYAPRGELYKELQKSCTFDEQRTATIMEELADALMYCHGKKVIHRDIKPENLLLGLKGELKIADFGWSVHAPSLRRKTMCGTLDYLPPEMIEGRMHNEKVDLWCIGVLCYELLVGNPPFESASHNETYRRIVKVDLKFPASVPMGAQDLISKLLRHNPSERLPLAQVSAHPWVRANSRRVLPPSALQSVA
UniProt P51813: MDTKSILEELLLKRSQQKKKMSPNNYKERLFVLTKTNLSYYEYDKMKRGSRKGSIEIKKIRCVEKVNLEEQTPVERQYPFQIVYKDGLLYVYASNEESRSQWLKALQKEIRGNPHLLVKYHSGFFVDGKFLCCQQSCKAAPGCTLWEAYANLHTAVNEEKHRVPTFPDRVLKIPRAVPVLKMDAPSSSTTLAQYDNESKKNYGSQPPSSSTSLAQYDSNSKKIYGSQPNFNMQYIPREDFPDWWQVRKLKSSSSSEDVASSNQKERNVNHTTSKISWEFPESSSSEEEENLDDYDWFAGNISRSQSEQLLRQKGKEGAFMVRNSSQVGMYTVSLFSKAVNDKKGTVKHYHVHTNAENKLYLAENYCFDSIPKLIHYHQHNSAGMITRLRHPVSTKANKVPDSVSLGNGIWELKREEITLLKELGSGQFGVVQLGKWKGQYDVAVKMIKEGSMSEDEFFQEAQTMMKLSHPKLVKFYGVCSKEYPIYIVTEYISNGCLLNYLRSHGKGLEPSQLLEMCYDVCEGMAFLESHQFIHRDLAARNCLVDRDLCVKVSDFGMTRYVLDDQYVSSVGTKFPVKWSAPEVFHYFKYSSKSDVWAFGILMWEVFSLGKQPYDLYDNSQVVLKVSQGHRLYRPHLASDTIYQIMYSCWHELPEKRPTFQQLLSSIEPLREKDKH
UniProt Q06187: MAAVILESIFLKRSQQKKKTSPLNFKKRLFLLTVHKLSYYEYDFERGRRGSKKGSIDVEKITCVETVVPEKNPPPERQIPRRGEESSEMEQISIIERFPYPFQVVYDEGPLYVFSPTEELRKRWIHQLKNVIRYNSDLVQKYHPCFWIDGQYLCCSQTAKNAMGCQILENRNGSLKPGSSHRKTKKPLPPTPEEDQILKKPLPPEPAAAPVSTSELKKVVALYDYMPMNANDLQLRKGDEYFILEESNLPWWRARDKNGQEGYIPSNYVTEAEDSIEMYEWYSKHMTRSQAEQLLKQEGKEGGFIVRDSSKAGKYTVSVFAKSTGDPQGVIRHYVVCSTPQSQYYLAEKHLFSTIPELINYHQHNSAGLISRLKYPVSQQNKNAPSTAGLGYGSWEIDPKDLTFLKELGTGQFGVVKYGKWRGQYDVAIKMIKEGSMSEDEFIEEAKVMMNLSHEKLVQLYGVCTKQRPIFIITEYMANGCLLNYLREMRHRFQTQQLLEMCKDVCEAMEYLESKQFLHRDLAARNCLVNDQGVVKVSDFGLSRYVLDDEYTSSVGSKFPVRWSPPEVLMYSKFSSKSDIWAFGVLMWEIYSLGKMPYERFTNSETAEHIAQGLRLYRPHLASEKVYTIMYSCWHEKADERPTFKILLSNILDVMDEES
UniProt Q9UQM7, whole entry: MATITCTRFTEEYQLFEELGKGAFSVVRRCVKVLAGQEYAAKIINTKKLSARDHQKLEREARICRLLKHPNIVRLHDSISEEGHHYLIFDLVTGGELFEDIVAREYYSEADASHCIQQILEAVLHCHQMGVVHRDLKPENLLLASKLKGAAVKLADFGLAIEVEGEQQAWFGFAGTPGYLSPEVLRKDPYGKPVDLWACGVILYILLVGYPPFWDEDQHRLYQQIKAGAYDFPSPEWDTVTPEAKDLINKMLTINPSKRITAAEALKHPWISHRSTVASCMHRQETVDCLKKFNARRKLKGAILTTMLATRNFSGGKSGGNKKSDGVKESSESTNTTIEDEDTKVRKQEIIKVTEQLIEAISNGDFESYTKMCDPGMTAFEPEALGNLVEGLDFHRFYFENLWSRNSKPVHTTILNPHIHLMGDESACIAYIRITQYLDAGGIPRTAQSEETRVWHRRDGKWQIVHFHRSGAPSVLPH
UniProt Q00526: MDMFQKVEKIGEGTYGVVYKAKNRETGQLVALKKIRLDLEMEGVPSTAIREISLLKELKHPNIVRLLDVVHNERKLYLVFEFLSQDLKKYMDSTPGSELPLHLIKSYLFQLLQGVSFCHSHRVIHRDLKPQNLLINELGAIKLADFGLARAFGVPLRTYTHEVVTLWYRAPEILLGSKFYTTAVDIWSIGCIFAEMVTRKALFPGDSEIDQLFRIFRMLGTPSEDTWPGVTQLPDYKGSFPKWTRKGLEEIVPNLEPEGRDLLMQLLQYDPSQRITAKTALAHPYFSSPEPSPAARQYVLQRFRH
UniProt P11802: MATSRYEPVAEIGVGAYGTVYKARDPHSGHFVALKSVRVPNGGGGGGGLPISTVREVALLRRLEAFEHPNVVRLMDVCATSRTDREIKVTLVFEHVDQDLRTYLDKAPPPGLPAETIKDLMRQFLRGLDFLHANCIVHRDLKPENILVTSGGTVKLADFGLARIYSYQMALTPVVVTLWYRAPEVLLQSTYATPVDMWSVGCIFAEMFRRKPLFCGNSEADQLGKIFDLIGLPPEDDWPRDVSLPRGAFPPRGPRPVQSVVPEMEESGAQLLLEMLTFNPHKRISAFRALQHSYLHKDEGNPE
UniProt Q00534, whole entry: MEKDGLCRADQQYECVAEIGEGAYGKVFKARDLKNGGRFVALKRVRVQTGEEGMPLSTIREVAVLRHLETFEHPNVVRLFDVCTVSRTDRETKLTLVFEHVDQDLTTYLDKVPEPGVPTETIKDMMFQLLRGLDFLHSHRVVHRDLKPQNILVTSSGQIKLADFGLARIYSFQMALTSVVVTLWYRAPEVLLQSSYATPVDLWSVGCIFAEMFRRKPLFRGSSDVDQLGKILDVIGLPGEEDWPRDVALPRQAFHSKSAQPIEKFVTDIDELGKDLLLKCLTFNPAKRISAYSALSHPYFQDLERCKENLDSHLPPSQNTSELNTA

Key:
Assay in all cases: kinase-Nluc reporter destabilization hit call (1 = scored as downregulated) (binary); higher = compound decreases kinase abundance
Conditions in all cases: K562; 2-18 h
ABL1 = ABL1 (UniProt P00519)
AKT1 = AKT1 (UniProt P31749)
ALK = ALK (UniProt Q9UM73)
ARAF = ARAF (UniProt P10398)
AURKA = AURKA (UniProt O14965)
AURKB = AURKB (UniProt Q96GD4)
AURKC = AURKC (UniProt Q9UQB9)
BLK = BLK (UniProt P51451)
BMX = BMX (UniProt P51813)
BRAF = BRAF (UniProt P15056)
BRAF_V600E = system: BRAF_V600E
BTK = BTK (UniProt Q06187)
CAMK2A = CAMK2A (UniProt Q9UQM7)
CAMK2G = CAMK2G (UniProt Q13555)
CDK10 = CDK10 (UniProt Q15131)
CDK2 = CDK2 (UniProt P24941)
CDK3 = CDK3 (UniProt Q00526)
CDK4 = CDK4 (UniProt P11802)
CDK5 = CDK5 (UniProt Q00535)
CDK6 = CDK6 (UniProt Q00534)

Measured: kinase-Nluc reporter destabilization hit call

Nc1ccc(-c2cccc(C(=O)Nc3cnc4nc(N5CCOCC5)oc4c3)n2)cn1 (10 µM)
inactive: ABL1 = 0 | AKT1 = 0 | ALK 0 | ARAF 0 | AURKA 0 | AURKB 0 | AURKC 0 | BLK 0 | BMX 0 | BRAF 0 | BRAF_V600E 0 | BTK 0 | CAMK2A 0 | CAMK2G 0 | CDK10 = 0 | CDK2 = 0 | CDK3 = 0 | CDK4 = 0 | CDK5 = 0 | CDK6 = 0

Cc1ccc2c(NS(=O)(=O)c3ccccc3Cl)cccc2c1Oc1ncccc1-c1ccnc(N[C@H]2CCCNC2)n1 (2.5 µM)
inactive: ABL1 = 0 | AKT1 = 0 | ALK 0 | ARAF 0 | AURKA 0 | AURKB 0 | AURKC 0 | BLK 0 | BMX 0 | BRAF 0 | BRAF_V600E 0 | BTK 0 | CAMK2A 0 | CAMK2G 0 | CDK10 = 0 | CDK2 = 0 | CDK3 = 0 | CDK4 = 0 | CDK5 = 0 | CDK6 = 0

C[C@@H](NC(=O)c1ncnc(N)c1Cl)c1ncc(C(=O)Nc2cc(C(F)(F)F)c(Cl)cn2)s1 (2.5 µM)
inactive: ABL1 = 0 | AKT1 = 0 | ALK 0 | ARAF 0 | AURKA 0 | AURKB 0 | AURKC 0 | BLK 0 | BMX 0 | BRAF 0 | BRAF_V600E 0 | BTK 0 | CAMK2A 0 | CAMK2G 0 | CDK10 = 0 | CDK2 = 0 | CDK3 = 0 | CDK4 = 0 | CDK5 = 0 | CDK6 = 0

CO[C@]1(C(=O)N[C@@H](C)c2ccc(-n3cc(F)cn3)nc2)CC[C@H](c2nc(C)cc(Nc3cc(C)[nH]n3)n2)CC1 [Pralsetinib] (10 µM)
inactive: ABL1 = 0 | AKT1 = 0 | ALK 0 | ARAF 0 | AURKA 0 | AURKB 0 | AURKC 0 | BLK 0 | BMX 0 | BRAF 0 | BRAF_V600E 0 | BTK 0 | CAMK2A 0 | CAMK2G 0 | CDK10 = 0 | CDK2 = 0 | CDK3 = 0 | CDK4 = 0 | CDK5 = 0 | CDK6 = 0

O=C1Cc2ccccc2N1 [Oxindole] (10 µM)
inactive: ABL1 = 0 | AKT1 = 0 | ALK 0 | ARAF 0 | AURKA 0 | AURKB 0 | AURKC 0 | BLK 0 | BMX 0 | BRAF 0 | BRAF_V600E 0 | BTK 0 | CAMK2A 0 | CAMK2G 0 | CDK10 = 0 | CDK2 = 0 | CDK3 = 0 | CDK4 = 0 | CDK5 = 0 | CDK6 = 0

Nothing new here: two of the compounds above.
C[C@@H](NC(=O)c1ncnc(N)c1Cl)c1ncc(C(=O)Nc2cc(C(F)(F)F)c(Cl)cn2)s1 (2.5 µM)
inactive: ABL1 = 0 | AKT1 = 0 | ALK 0 | ARAF 0 | AURKA 0 | AURKB 0 | AURKC 0 | BLK 0 | BMX 0 | BRAF 0 | BRAF_V600E 0 | BTK 0 | CAMK2A 0 | CAMK2G 0 | CDK10 = 0 | CDK2 = 0 | CDK3 = 0 | CDK4 = 0 | CDK5 = 0 | CDK6 = 0

CO[C@]1(C(=O)N[C@@H](C)c2ccc(-n3cc(F)cn3)nc2)CC[C@H](c2nc(C)cc(Nc3cc(C)[nH]n3)n2)CC1 [Pralsetinib] (10 µM)
inactive: ABL1 = 0 | AKT1 = 0 | ALK 0 | ARAF 0 | AURKA 0 | AURKB 0 | AURKC 0 | BLK 0 | BMX 0 | BRAF 0 | BRAF_V600E 0 | BTK 0 | CAMK2A 0 | CAMK2G 0 | CDK10 = 0 | CDK2 = 0 | CDK3 = 0 | CDK4 = 0 | CDK5 = 0 | CDK6 = 0

Next compounds

Cc1ccc(Nc2cc(N[C@@H]3CCCC[C@@H]3N)nnc2C(N)=O)nc1C (2 µM)
inactive: ABL1 = 0 | AKT1 = 0 | ALK 0 | ARAF 0 | AURKA 0 | AURKB 0 | AURKC 0 | BLK 0 | BMX 0 | BRAF 0 | BRAF_V600E 0 | BTK 0 | CAMK2A 0 | CAMK2G 0 | CDK10 = 0 | CDK2 = 0 | CDK3 = 0 | CDK4 = 0 | CDK5 = 0 | CDK6 = 0

Cc1n[nH]c2ncc(C(=O)N3CCC[C@H]3c3ccc(Cl)cc3)cc12 (10 µM)
inactive: ABL1 = 0 | AKT1 = 0 | ALK 0 | ARAF 0 | AURKA 0 | AURKB 0 | AURKC 0 | BLK 0 | BMX 0 | BRAF 0 | BRAF_V600E 0 | BTK 0 | CAMK2A 0 | CAMK2G 0 | CDK10 = 0 | CDK2 = 0 | CDK3 = 0 | CDK4 = 0 | CDK5 = 0 | CDK6 = 0

COc1cc2nccc(Nc3cccc(Oc4ccccc4)c3)c2cc1OC (2.5 µM)
inactive: ABL1 = 0 | AKT1 = 0 | ALK 0 | ARAF 0 | AURKA 0 | AURKB 0 | AURKC 0 | BLK 0 | BMX 0 | BRAF 0 | BRAF_V600E 0 | BTK 0 | CAMK2A 0 | CAMK2G 0 | CDK10 = 0 | CDK2 = 0 | CDK3 = 0 | CDK4 = 0 | CDK5 = 0 | CDK6 = 0

CNc1cc2c(Nc3cccc(Br)c3)ncnc2cn1 (10 µM)
inactive: ABL1 = 0 | AKT1 = 0 | ALK 0 | ARAF 0 | AURKA 0 | AURKB 0 | AURKC 0 | BLK 0 | BMX 0 | BRAF 0 | BRAF_V600E 0 | BTK 0 | CAMK2A 0 | CAMK2G 0 | CDK10 = 0 | CDK2 = 0 | CDK3 = 0 | CDK4 = 0 | CDK5 = 0 | CDK6 = 0

Cc1nc(Nc2cnn(C3CCNCC3)c2)nc2c1N(C)C(=O)c1cc3ccccc3cc1N2C (2.5 µM)
inactive: ABL1 = 0 | AKT1 = 0 | ALK 0 | ARAF 0 | AURKA 0 | AURKB 0 | AURKC 0 | BLK 0 | BMX 0 | BRAF 0 | BRAF_V600E 0 | BTK 0 | CAMK2A 0 | CAMK2G 0 | CDK10 = 0 | CDK2 = 0 | CDK3 = 0 | CDK4 = 0 | CDK5 = 0 | CDK6 = 0

Oc1ccc(-c2cnc3ccc(NCc4ccco4)nn23)cc1 [IRAK inhibitor 2] (2.5 µM)
inactive: ABL1 = 0 | AKT1 = 0 | ALK 0 | ARAF 0 | AURKA 0 | AURKB 0 | AURKC 0 | BLK 0 | BMX 0 | BRAF 0 | BRAF_V600E 0 | BTK 0 | CAMK2A 0 | CAMK2G 0 | CDK10 = 0 | CDK2 = 0 | CDK3 = 0 | CDK4 = 0 | CDK5 = 0 | CDK6 = 0

Cc1nc(NC(=O)N2CCC[C@H]2C(N)=O)sc1-c1ccnc(C(C)(C)C(F)(F)F)c1 [Alpelisib] (2.5 µM)
inactive: ABL1 = 0 | AKT1 = 0 | ALK 0 | ARAF 0 | AURKA 0 | AURKB 0 | AURKC 0 | BLK 0 | BMX 0 | BRAF 0 | BRAF_V600E 0 | BTK 0 | CAMK2A 0 | CAMK2G 0 | CDK10 = 0 | CDK2 = 0 | CDK3 = 0 | CDK4 = 0 | CDK5 = 0 | CDK6 = 0

O=S(=O)(c1ccc(O)cc1O)N1Cc2cc(O)cc(O)c2C1 (10 µM)
inactive: ABL1 = 0 | AKT1 = 0 | ALK 0 | ARAF 0 | AURKA 0 | AURKB 0 | AURKC 0 | BLK 0 | BMX 0 | BRAF 0 | BRAF_V600E 0 | BTK 0 | CAMK2A 0 | CAMK2G 0 | CDK10 = 0 | CDK2 = 0 | CDK3 = 0 | CDK4 = 0 | CDK5 = 0 | CDK6 = 0

Cc1ccc(NC(=O)N2CCN(c3nc(N)nc4sc(-c5cccnc5)nc34)CC2)cc1 [PI4KIII beta inhibitor 3] (10 µM)
inactive: ABL1 = 0 | AKT1 = 0 | ALK 0 | ARAF 0 | AURKA 0 | AURKB 0 | AURKC 0 | BLK 0 | BMX 0 | BRAF 0 | BRAF_V600E 0 | BTK 0 | CAMK2A 0 | CAMK2G 0 | CDK10 = 0 | CDK2 = 0 | CDK3 = 0 | CDK4 = 0 | CDK5 = 0 | CDK6 = 0

CS(=O)(=O)c1ccc([C@@H](CC2CCCC2)C(=O)Nc2nccs2)cc1 (10 µM)
inactive: ABL1 = 0 | AKT1 = 0 | ALK 0 | ARAF 0 | AURKA 0 | AURKB 0 | AURKC 0 | BLK 0 | BMX 0 | BRAF 0 | BRAF_V600E 0 | BTK 0 | CAMK2A 0 | CAMK2G 0 | CDK10 = 0 | CDK2 = 0 | CDK3 = 0 | CDK4 = 0 | CDK5 = 0 | CDK6 = 0

CN1CCN(Cc2ccc(-c3cn(C4CCC(O)CC4)c4nc(NCCC5CC5)ncc34)cc2)CC1 (stereo not given) (2.5 µM)
inactive: ABL1 = 0 | AKT1 = 0 | ALK 0 | ARAF 0 | AURKA 0 | AURKB 0 | AURKC 0 | BLK 0 | BMX 0 | BRAF 0 | BRAF_V600E 0 | BTK 0 | CAMK2A 0 | CAMK2G 0 | CDK10 = 0 | CDK2 = 0 | CDK3 = 0 | CDK4 = 0 | CDK5 = 0 | CDK6 = 0

CN1C(=O)N[C@@H](Cc2c[nH]c3c(Cl)cccc23)C1=O [Necrostatin 2 (S enantiomer)] (10 µM)
inactive: ABL1 = 0 | AKT1 = 0 | ALK 0 | ARAF 0 | AURKA 0 | AURKB 0 | AURKC 0 | BLK 0 | BMX 0 | BRAF 0 | BRAF_V600E 0 | BTK 0 | CAMK2A 0 | CAMK2G 0 | CDK10 = 0 | CDK2 = 0 | CDK3 = 0 | CDK4 = 0 | CDK5 = 0 | CDK6 = 0
